Test results: article PMC8084160
Results are given in words; binding and its absence hold for the method and conditions named. Some results given as binding are weak or reduced against the parent protein; the word gives no strength.

Target: prosaposin (rat (endogenous in epididymal fluid of Sprague-Dawley rats)) (UniProt P10960)
Experiment: SDS-PAGE under non-reducing conditions with immunoblot; epididymal fluid proteins of control, castrated and castrated plus testosterone rats in Laemmli buffer without dithiothreitol, 7% gels, blot with anti-prosaposin

binding: binds
B1: prosaposin (protein, UniProt P10960 17-554)
chain: SPVQDPKICSGGSAVVCRDVKTAVDCRAVKHCQQMVWSKPTAKSLPCDICKTVVTEAGNLLKDNATEEEILHYLEKTCAWIHDSSLSASCKEVVDSYLPVILDMIKGEMSNPGEVCSALNLCQSLQEYLAEQNQRQLESNKIPEVDLARVVAPFMSNIPLLLYPQDRPRSQPQPKANEDVCQDCMKLVTDIQTAVRTNSSFVQGLVDHVKEDCDRLGPGVSDICKNYVDQYSEVAVQMMMHMQPKEICVMVGFCDEVKRVPMRTLVPATEAIKNILPALELTDPYEQDVIQAQNVIFCQVCQLVMRKLSELIINNATEELLIKGLSKACSLLPAPASTKCQEVLVTFGPSLLDVLMHEVNPNFLCGVISLCSANPNLVGTLEQPAAAIVSALPKEPAPPKQPEEPKQSALRAHVPPQKNGGFCEVCKKLVIYLEHNLEKNSTKEEILAALEKGCSFLPDPYQKQCDEFVAEYEPLLLEILVEVMDPSFVCSKIGVCPSAYKLLLGTEKCVWGPGYWCQNSETAARCNAVDHCKRHVWN
